Where “and” joins values, the source holds several entries; their conditions need not be identical. Identical values can stand only once. Like-named read-outs stand apart in the source and are kept apart here. Further values from the same series stand in other lists.
System: MDA-MB-231 human breast cancer xenograft
Conditions: listed as anti-STAT3 bacterial VHH13

Substance: Anti-STAT3 VHH13: anti-STAT3 single domain antibody, SEQ ID NO:3; bacterially produced form referred to as SBT-100
- Individual Tumor Measurements (Group 2, 500 μg/kg bw IP QDx14, single animals, Day 1): 163.73 mm^3 and 75.54 mm^3 and 70.04 mm^3 and 101.62 mm^3 and 67.83 mm^3 and 131.93 mm^3 and 74.28 mm^3
- Individual Tumor Measurements (Group 2, single animals, Day 6): 178.23 mm^3 and 83.94 mm^3 and 89.24 mm^3 and 65.09 mm^3 and 62.21 mm^3 and 75.28 mm^3 and 109.06 mm^3
- Individual Tumor Measurements (Group 2, single animals, Day 9): 183.79 mm^3 and 103.68 mm^3 and 102.60 mm^3 and 82.02 mm^3 and 59.00 mm^3 and 76.21 mm^3 and 111.92 mm^3
- Individual Tumor Measurements (Group 2, single animals, Day 12): 165.52 mm^3 and 119.88 mm^3 and 75.25 mm^3 and 68.01 mm^3 and 77.04 mm^3 and 53.55 mm^3 and 89.94 mm^3
- Individual Tumor Measurements (Group 2, single animals, Day 16): 166.77 mm^3 and 214.28 mm^3 and 104.26 mm^3 and 57.65 mm^3 and 61.41 mm^3 and 65.49 mm^3 and 73.66 mm^3 and 58.56 mm^3
- Individual Tumor Measurements (Group 2, single animals, Day 20): 285.88 mm^3 and 129.51 mm^3 and 99.48 mm^3 and 95.23 mm^3 and 61.83 mm^3 and 82.73 mm^3 and 51.61 mm^3 and 100.07 mm^3

From patent US20170327598A1, “SINGLE DOMAIN ANTIBODIES DIRECTED AGAINST INTRACELLULAR ANTIGENS” (SINGH MOLECULAR MEDICINE, LLC, priority 2014, published 2017)
